Literature values, collected in patent US10100341B2, “Tailored oils produced from recombinant oleaginous microorganisms” (Corbion Biotech, Inc., priority 2011, dated 2018).
At least one structure is not confirmed: it was looked up by name or label, or the drawing left a doubt.

System: Chlorella kessleri
Conditions: 15 ug/L kanamycin; cited from earlier work

## NC[C@H]1O[C@H](O[C@H]2[C@H](O)[C@@H](O[C@H]3O[C@H](CO)[C@@H](O)[C@H](N)[C@H]3O)[C@H](N)C[C@@H]2N)[C@H](O)[C@@H](O)[C@@H]1O [kanamycin]
  propagation of untransformed cells in medium comprising the agent: unable to be propagated
